Results taken from the supplement of paper PMC10060354, “Discovery of a small molecule ligand of FRS2 that inhibits invasion and tumor growth” (Cellular Oncology, 2022).
Repeats are few or missing, and single values can be far off.

Sequences of proteins named here, by UniProt entry; tags and fusion partners are left off. A change or cut given only in a name is not applied to a line headed by its entry.
UniProt Q9BRQ0: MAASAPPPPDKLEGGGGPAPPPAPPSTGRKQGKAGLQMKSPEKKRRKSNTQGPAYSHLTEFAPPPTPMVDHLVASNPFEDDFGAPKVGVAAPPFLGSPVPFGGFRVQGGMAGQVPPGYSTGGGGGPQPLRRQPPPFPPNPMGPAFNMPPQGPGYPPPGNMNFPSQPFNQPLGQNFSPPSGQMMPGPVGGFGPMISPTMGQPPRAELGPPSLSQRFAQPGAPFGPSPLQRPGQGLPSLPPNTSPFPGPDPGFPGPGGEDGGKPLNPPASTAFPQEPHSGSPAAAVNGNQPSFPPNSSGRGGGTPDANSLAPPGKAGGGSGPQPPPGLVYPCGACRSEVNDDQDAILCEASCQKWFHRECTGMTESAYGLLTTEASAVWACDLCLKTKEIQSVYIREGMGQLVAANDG
UniProt Q16698: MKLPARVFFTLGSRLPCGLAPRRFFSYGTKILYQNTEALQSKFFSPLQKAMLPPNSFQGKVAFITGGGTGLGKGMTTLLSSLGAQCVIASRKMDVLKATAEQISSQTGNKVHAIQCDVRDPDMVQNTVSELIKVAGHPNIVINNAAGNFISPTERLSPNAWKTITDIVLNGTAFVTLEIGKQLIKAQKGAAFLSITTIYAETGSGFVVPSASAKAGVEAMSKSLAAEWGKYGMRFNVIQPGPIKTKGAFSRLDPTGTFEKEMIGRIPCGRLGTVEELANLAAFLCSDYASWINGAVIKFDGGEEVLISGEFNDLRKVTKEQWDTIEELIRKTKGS
UniProt Q9NYV6: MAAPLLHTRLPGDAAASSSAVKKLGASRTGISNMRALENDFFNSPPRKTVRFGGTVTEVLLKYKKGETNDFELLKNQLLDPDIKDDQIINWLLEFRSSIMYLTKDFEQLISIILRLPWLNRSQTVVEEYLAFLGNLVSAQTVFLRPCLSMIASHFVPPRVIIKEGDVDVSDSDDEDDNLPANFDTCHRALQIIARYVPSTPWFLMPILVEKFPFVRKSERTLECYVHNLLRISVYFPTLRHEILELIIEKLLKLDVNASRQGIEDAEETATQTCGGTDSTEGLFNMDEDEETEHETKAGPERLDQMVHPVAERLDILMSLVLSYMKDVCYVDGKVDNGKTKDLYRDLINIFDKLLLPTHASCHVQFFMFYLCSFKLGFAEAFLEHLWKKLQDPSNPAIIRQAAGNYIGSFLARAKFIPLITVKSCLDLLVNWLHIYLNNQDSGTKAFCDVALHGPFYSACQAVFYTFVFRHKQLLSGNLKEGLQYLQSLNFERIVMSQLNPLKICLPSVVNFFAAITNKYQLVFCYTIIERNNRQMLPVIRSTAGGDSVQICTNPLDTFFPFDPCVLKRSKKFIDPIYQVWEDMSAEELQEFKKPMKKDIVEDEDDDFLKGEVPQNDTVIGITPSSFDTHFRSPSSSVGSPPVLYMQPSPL
UniProt Q8N2K0: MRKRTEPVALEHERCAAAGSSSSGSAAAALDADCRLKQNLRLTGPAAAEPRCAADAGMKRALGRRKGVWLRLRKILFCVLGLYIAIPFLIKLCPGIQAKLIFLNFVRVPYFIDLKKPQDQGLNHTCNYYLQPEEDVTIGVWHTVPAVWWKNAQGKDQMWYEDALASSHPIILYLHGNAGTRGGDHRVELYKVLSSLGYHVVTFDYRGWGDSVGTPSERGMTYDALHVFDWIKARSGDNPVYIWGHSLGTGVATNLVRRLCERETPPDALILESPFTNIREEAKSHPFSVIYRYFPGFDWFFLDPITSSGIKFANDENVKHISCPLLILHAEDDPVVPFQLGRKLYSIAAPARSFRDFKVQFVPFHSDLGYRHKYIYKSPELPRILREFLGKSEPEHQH
UniProt Q9UHD8: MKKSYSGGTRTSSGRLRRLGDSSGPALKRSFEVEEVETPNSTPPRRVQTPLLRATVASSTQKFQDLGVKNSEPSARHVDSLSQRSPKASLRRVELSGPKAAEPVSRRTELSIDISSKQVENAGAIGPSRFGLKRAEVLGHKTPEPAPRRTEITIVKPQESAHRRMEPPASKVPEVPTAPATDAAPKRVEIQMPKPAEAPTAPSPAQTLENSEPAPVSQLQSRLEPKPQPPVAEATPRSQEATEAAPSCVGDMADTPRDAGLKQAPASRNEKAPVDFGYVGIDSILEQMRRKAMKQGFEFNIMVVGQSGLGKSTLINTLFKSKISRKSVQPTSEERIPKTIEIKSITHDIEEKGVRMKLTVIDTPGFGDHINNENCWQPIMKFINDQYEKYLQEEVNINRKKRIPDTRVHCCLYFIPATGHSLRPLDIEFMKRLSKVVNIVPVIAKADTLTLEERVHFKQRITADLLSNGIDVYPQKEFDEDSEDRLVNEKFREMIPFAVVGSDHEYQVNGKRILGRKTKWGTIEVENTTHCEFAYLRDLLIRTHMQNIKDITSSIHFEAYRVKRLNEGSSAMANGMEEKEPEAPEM
UniProt Q9UJC5: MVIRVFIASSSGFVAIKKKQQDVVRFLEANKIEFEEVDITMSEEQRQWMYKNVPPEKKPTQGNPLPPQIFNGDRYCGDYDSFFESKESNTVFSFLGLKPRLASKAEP
UniProt Q9Y4E8: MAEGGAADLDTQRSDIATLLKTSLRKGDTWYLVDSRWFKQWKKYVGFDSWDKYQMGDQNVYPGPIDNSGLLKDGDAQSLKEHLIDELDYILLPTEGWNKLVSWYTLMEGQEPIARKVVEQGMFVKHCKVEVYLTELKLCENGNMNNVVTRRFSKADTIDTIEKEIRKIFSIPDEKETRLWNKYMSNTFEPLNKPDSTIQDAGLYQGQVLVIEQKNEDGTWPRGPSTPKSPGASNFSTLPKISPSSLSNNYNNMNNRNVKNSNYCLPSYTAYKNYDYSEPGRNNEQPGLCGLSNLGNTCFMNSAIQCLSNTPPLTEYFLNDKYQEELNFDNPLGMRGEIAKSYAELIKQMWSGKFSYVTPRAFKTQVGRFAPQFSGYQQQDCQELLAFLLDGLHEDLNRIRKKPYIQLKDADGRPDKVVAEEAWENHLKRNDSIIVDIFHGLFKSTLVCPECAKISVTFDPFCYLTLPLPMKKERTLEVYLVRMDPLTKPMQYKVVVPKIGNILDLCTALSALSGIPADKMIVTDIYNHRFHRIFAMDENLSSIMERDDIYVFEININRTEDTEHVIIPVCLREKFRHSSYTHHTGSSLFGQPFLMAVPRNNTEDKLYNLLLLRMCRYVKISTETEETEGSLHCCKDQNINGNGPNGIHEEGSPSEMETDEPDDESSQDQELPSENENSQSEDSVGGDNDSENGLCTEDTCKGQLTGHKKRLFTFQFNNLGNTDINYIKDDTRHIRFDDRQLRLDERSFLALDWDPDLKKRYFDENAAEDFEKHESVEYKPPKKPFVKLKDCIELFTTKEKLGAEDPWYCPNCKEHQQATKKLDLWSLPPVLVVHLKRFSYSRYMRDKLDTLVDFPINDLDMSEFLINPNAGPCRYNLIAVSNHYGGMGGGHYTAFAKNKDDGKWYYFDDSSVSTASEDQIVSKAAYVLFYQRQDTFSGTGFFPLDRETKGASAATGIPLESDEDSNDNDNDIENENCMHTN
UniProt Q9P1Y5: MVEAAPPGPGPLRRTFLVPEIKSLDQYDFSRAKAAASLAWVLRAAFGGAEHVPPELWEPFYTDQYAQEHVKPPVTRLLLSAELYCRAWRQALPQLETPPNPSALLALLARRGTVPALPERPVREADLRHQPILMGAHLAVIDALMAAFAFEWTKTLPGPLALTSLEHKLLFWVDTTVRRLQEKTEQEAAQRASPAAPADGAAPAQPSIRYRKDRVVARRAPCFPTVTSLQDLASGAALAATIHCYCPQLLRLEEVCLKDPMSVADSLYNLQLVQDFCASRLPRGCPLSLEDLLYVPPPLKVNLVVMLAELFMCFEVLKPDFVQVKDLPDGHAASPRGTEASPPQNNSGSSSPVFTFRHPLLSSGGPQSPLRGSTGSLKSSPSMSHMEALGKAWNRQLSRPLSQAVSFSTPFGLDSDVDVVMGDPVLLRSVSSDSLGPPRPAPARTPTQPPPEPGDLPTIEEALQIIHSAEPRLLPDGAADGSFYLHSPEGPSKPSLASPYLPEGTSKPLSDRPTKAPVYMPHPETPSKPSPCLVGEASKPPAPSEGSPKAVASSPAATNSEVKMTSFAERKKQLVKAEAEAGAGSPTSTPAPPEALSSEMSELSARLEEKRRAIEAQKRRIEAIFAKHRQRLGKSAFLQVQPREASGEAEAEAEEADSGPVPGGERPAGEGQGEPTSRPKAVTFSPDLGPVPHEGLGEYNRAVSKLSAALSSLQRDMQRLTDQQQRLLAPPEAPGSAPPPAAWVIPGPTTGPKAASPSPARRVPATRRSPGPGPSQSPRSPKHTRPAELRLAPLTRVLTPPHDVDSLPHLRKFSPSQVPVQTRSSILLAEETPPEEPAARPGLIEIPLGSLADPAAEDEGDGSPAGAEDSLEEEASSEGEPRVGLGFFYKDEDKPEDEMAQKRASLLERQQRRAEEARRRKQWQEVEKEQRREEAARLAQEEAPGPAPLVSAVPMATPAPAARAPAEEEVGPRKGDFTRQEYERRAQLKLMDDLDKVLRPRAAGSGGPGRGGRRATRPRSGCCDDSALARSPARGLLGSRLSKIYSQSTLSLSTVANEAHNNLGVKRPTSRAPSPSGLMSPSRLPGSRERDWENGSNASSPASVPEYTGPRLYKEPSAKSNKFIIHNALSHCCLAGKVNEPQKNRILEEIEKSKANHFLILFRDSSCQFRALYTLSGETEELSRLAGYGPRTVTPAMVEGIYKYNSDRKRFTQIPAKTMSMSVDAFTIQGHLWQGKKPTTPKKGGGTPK
UniProt Q8TCB0: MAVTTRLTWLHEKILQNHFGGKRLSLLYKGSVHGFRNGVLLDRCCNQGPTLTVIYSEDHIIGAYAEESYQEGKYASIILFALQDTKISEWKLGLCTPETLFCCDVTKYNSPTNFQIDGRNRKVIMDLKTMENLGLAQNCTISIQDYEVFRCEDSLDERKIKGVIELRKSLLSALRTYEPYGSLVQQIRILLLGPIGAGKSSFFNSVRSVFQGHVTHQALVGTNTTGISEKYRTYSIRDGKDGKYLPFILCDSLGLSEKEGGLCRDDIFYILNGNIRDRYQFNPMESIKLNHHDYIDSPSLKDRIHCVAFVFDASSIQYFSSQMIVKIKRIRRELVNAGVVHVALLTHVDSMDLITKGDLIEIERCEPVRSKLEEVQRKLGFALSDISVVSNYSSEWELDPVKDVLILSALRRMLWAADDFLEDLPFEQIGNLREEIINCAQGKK
UniProt P40222: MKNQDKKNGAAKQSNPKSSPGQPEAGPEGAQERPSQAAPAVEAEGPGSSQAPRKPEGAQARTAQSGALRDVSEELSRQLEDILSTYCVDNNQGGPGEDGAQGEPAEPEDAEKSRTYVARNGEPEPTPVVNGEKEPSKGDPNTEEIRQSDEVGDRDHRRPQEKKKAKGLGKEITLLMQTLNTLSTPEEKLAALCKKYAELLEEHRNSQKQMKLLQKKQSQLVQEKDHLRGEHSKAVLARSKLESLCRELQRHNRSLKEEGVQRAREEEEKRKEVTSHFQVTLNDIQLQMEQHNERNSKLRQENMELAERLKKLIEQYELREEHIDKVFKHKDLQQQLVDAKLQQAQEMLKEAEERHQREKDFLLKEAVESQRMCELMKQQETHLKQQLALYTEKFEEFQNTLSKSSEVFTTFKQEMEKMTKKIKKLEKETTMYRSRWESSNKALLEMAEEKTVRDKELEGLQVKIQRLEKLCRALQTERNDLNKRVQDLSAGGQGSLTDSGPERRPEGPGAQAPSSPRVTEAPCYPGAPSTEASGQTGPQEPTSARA
UniProt P58012: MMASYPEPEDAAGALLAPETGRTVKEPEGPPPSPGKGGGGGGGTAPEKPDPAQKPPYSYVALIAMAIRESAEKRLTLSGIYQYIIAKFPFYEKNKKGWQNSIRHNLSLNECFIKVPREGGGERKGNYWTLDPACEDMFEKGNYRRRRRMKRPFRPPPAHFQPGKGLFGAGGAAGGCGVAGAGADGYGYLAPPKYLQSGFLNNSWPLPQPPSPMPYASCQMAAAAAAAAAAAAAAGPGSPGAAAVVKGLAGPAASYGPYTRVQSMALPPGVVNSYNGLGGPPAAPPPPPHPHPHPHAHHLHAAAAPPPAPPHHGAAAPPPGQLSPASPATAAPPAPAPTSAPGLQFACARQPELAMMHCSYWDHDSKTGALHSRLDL
UniProt P05091: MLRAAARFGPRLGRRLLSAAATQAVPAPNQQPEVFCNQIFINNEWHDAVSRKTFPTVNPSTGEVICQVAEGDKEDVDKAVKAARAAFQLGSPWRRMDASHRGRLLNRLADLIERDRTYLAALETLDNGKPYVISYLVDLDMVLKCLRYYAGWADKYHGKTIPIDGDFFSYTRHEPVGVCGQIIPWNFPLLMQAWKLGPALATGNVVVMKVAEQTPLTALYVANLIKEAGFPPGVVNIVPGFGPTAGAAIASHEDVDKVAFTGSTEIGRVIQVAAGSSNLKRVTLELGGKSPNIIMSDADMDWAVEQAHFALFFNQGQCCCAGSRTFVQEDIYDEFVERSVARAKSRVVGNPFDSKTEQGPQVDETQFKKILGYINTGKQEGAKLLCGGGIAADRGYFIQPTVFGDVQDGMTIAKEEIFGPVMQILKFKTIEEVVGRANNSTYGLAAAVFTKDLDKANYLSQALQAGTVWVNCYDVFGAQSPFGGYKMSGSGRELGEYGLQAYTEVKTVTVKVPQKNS

Compound: [O-][N+](C(C1=C(C(O)=C2)NC(C(C=C3)=CC=C3Cl)C4C1C=CC4)=C2Cl)=O
Assay: melting temperature shift (compound 7 minus DMSO); higher = compound stabilises the protein
Conditions: 10 µM
Method: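 Thermal proteome profiling (TMT mass spectrometry) in intact DAOY medulloblastoma cells or DAOY lysates treated with 10 µM compound 7 or DMSO, heated at 10 temperatures from 40.5 to 73.8 °C for 3 min. Melting curves were fitted with the Bioconductor TPP package, and the melting point difference between compound and vehicle is reported per protein (single curve per condition).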

[1] = system: DAOY cell lysate, treatment time: 20 min, 4 °C
[2] = system: intact DAOY cells, treatment time: 90 min, 37 °C

Target | melting temperature shift [1] [°C] | melting temperature shift [2] [°C]
ADSL (UniProt P30566) | -1.8 | -1.17
UniProt Q9BRQ0 | 1.79 | 
UniProt Q9Y664 | -0.613 | 
CAPZA1 (UniProt P52907) | -1.07 | 0.604
AHCY (UniProt P23526) | -0.707 | -0.591
EIF4A2 (UniProt Q14240) | -0.419 | -0.114
UniProt Q8N5B7 | 2.39 | 
TM9SF3 (UniProt Q9HD45) | 1.38 | -0.957
CACYBP (UniProt Q9HB71) | -0.281 | 0.156
DECR1 (UniProt Q16698) | 1.45 | -0.11
LSM7 (UniProt Q9UK45) | 1.57 | 0.709
ZC3H7B (UniProt Q9UGR2) | 0.787 | -0.249
ACBD5 (UniProt Q5T8D3) | 1.13 | -0.377
SLC4A7 (UniProt Q9Y6M7) | 1.57 | 1.49
EED (UniProt O75530) | 0.508 | 0.0224
MAGED2 (UniProt Q9UNF1) | -1.05 | 0.233
SERPINB8 (UniProt P50452) | -1.25 | 0.473
RRN3 (UniProt Q9NYV6) | -0.557 | 1.06
UniProt Q02446 | -0.551 | -0.915
EIF4E (UniProt P06730) | -0.539 | 0.734
ABHD12 (UniProt Q8N2K0) | -0.406 | -0.382
RPL38 (UniProt P63173) | -0.442 | -0.908
TMEM237 (UniProt Q96Q45) | 1.66 | 

Target | melting temperature shift [1] [°C] | melting temperature shift [2] [°C]
UniProt Q9UHD8 | -0.224 | -0.02
NACC1 (UniProt Q96RE7) | -0.763 | -1.27
VAPB (UniProt O95292) | 1.15 | -0.55
FAM83G (UniProt A6ND36) | 0.628 | 2.12
UniProt Q9UJC5 | 0.242 | -0.0368
UniProt P05062 |  | 1.56
LIMCH1 (UniProt Q9UPQ0) | -0.961 | 0.705
TMEM33 (UniProt P57088) | -0.139 | -2.37
UniProt P49674 | 0.212 | 
UBL5 (UniProt Q9BZL1) | 0.72 | -0.066
TGFB1 (UniProt P01137) | 1.17 | -1.49
CLIC6 (UniProt Q96NY7) | -1.37 | -0.444
UBE2M (UniProt P61081) | -0.448 | -0.314
UniProt O60551 | 0.521 | 0.691
TMEM245 (UniProt Q9H330) | 0.298 | -0.887
USP15 (UniProt Q9Y4E8) | -0.9 | 0.649
RNASEL (UniProt Q05823) |  | -1.35
UBL7 (UniProt Q96S82) | -0.604 | -0.566
CAPN7 (UniProt Q9Y6W3) | -1.13 | 1.13
UniProt Q9P1Y5 | 2.45 | -2.94
ABHD10 (UniProt Q9NUJ1) | 0.572 | -0.716
UniProt Q8N988 | 0.174 | 
NOP16 (UniProt Q9Y3C1) | 1.5 | 

Target | melting temperature shift [1] [°C] | melting temperature shift [2] [°C]
USP7 (UniProt Q93009) | -0.383 | -0.101
TMX1 (UniProt Q9H3N1) | 0.921 | -1.93
MRPL28 (UniProt Q13084) | 2.25 | -1.09
HDGFRP2 (UniProt Q7Z4V5) | -3.27 | 
UniProt Q58FG0 |  | -0.296
UniProt Q8N302 | 3.75 | 
SP3 (UniProt Q02447) |  | 2.21
PEX16 (UniProt Q9Y5Y5) | -3.34 | 
PFAS (UniProt O15067) | -0.159 | 0.664
EIF3G (UniProt O75821) | -0.124 | 0.225
STAT3 (UniProt P40763) | -0.424 | -0.514
NDUFA10 (UniProt O95299) | -0.109 | -1.74
C11ORF68 (UniProt Q9H3H3) | -0.961 | -0.587
DFFA (UniProt O00273) | -0.306 | 0.313
NEURL4 (UniProt Q96JN8) | -1.69 | 0.394
UniProt Q6ZU15 |  | -0.359
AKAP9 (UniProt Q99996) | -0.321 | 0.875
KIF4A (UniProt O95239) | -1.12 | 0.103
UniProt Q86UP8 |  | 0.467
AGAP3 (UniProt Q96P47) | -0.00436 | -2.54
UniProt Q8TCB0 | 1.78 | 0.312
MYO1E (UniProt Q12965) | -0.929 | -0.901
SDHB (UniProt P21912) | 1.99 | 1.3

Target | melting temperature shift [1] [°C] | melting temperature shift [2] [°C]
COPS6 (UniProt Q7L5N1) | -0.438 | -0.507
BLVRA (UniProt P53004) | -0.61 | -0.698
IPO5 (UniProt O00410) | -0.573 | -0.25
LNP (UniProt Q9C0E8) | 2.55 | 0.571
UniProt Q8NFP7 |  | 0.95
WDR11 (UniProt Q9BZH6) | -0.782 | 0.51
RPS7 (UniProt P62081) | 0.562 | -0.679
UniProt P15313 |  | 0.0103
GORASP2 (UniProt Q9H8Y8) | 0.106 | 0.322
UniProt Q9H0H0 | -1.08 | 
DFNA5 (UniProt O60443) | -1.09 | -0.582
UniProt Q9NX07 | 0.185 | 
TXLNA (UniProt P40222) | -1.29 | 0.155
UniProt P58012 |  | -1.23
PRPF19 (UniProt Q9UMS4) | -0.274 | 1.84
UniProt Q4VC05 |  | 1.22
GTF2E2 (UniProt P29084) | -0.754 | -2.16
UniProt P05091 | 0.111 | -0.0587
PPIH (UniProt O43447) | 0.116 | -0.282
UniProt Q9H9S3 |  | -1.31

An excerpt of the results above, as a working copy:
Target | melting temperature shift [1] [°C] | melting temperature shift [2] [°C]
TXLNA (UniProt P40222) | -1.29 | 0.155
UniProt P58012 |  | -1.23
PRPF19 (UniProt Q9UMS4) | -0.274 | 1.84
